The supplement of paper PMC10338343
± gives the standard deviation. Only a part is listed here, and it is no random draw. Many entries were measured with a wide error. Some of the results follow.

Key:
[1] = system: MIWI (PIWIL1) piRISC loaded with L1MC piRNA (30 nt); experiment: pre-steady-state target cleavage rate (min^-1); higher = faster piRNA-guided slicing of the target; settings: guide: L1MC piRNA 5'p-UAACUAAAUACUAUGCAAGCUGUAGGUCCU;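 further: 1 nM active piRISC with 0.1 nM target library at 33 °C single turnover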
Procedure, shortened: (§1)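 Cleave-'n-Seq measured uncleaved targets by sequencing after a transcribed, DNA-blocked target RNA library […] was mixed with 1 nM active affinity-purified piRISC holding one synthetic guide, with or without 500 nM GTSF1 partner protein, at 33 °C in HEPES–potassium acetate buffer for 0–8 or 0–960 min. Counts were normalised to depth and to weakly complementary targets, three trials were pooled, and k3 was capped at 0.0001 min^-1. A burst-and-steady-state fit gave the pre-steady-state cleavage rate.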

[2] = system: EfPiwi piRISC loaded with L1MC piRNA (26 nt); experiment: pre-steady-state target cleavage rate (min^-1); guide: L1MC piRNA 5'p-UAACUAAAUACUAUGCAAGCUGUAGG; MIWI and MILI are mouse PIWI proteins and EfPiwi is from a freshwater sponge; tags in brackets are library labels; higher = faster piRNA-guided slicing of the target
Procedure, shortened: as §1

[3] = auxiliary factor: 500 nM mouse GTSF1
[4] = auxiliary factor: none (no GTSF1)
[5] = auxiliary factor: 500 nM Ephydatia muelleri Gtsf1
[6] = auxiliary factor: none (no Gtsf1)

Row | Sequence | pre-steady-state target cleavage rate [1, 3] | pre-steady-state target cleavage rate [1, 4] | pre-steady-state target cleavage rate [2, 5] | pre-steady-state target cleavage rate [2, 6]
1 | UCCUGGAUGUCCUUGCUUAGUAAUUAGUUA | 0.00291 ± 0.0048 | 0.00118 ± 0.0043 | 0.000275 ± 0.016 | 
2 | UCCUGGAUGUGCUUGCAAUCUAUUUAGAAA | 0.000646 ± 0.012 | 0.000568 ± 0.011 |  | 0.000799 ± 0.0097
3 | UCCUCCUCAGCUUGCAUAGUAUUUAGUUA | 1.05 ± 0.027 | 0.0482 ± 0.009 | 0.0735 ± 0.017 | 
4 | UCCUGGUACAGCUUGCAUACGUAUUUAGUUA | 0.00124 ± 0.012 | 0.00024 ± 0.018 | 0.00136 ± 0.0058 | 
5 | UCCUGGAUGUGCUUGGAUAGUAUUAAGUUA | 0.0897 ± 0.022 | 0.00634 ± 0.0041 | 0.000392 ± 0.015 | 
6 | UCCUGGUUCAGCUUGGAUAGUAUUUAGUUA | 0.791 ± 0.063 | 0.0603 ± 0.014 | 0.00792 ± 0.0035 | 
7 | UCCUGGAUGAGCUUGCAUAGAUUUUAGUAA | 0.00253 ± 0.0042 | 0.00173 ± 0.0041 | 0.000662 ± 0.0065 | 
8 | UCCUGGAACAGCUUGCAUGUAUUUAGUUA | 0.103 ± 0.015 | 0.00591 ± 0.0032 |  | 0.00227 ± 0.0055
9 | UCCUGGAUGUCGAACCCAUAGUAUUUAGUUA | 0.00121 ± 0.0032 | 0.00132 ± 0.0041 | 0.00191 ± 0.0045 | 
10 | UCCUCGAUCAGCUUGCAUAGUAUUUAGUAA | 1.06 ± 0.048 | 0.04 ± 0.0086 | 0.00989 ± 0.0033 | 
11 | UCCUGGAUGUCGAUGCAUAGUGAUUUAGUUA | 0.000393 ± 0.026 | 0.00175 ± 0.005 | 0.000929 ± 0.0092 | 
12 | UCCUGCUACAGCUUGCUUAGUAUAUAGUUA | 0.404 ± 0.038 | 0.0128 ± 0.0044 | 0.0125 ± 0.0047 | 
13 | UCCUGGAUGUCGAACGUUUGUUUUUAGUUA | 0.000188 ± 0.044 | 0.000334 ± 0.015 |  | 0.000122 ± 0.058
14 | UCCUGCUUGAGCUUGCAUAGUAUUUAGUAA | 0.491 ± 0.051 | 0.0206 ± 0.004 | 0.00772 ± 0.0023 | 
15 | UCCUGGAACACCUUGCUUAGUAUUUAGUUA | 0.239 ± 0.032 | 0.00546 ± 0.0019 | 0.0036 ± 0.0033 | 
16 | UCCUGGAUGAGCUUGGUAAGUAUUUACAAA | 0.000485 ± 0.02 | 0.00101 ± 0.0067 | 0.000193 ± 0.023 | 
17 | UCCUGGAACAGCUUGGUAAGUAUUUAGUAA | 0.0019 ± 0.0053 | 0.00133 ± 0.004 | 0.00033 ± 0.01 | 
18 | UCCUGCUACAGCAUGCAUAGUAAUUAGUUA | 0.73 ± 0.077 | 0.00723 ± 0.0026 | 0.007 ± 0.0024 | 
19 | UCCUGGAUGUCCUUGCAUUGUAAUUAGUUA | 0.00155 ± 0.0073 | 0.00107 ± 0.0079 | 0.00164 ± 0.0044 | 
20 | UCCUGGAUGUCGUAGCAUACUAUUUAGUUA | 0.00121 ± 0.0058 | 0.000516 ± 0.014 | 0.000293 ± 0.011 | 
21 | UCCUGCAACAGCUUGCAUAGUAUUUAGUAA | 1.22 ± 0.083 | 0.0736 ± 0.021 | 0.00572 ± 0.0023 | 
22 | UCCUGGAUGUCGAAGCAUAGUAUUUAUGUUA | 0.00149 ± 0.006 | 0.000515 ± 0.014 | 0.000208 ± 0.017 | 
23 | UCCUGGAUGUCGAAGCAUAGUAUUUAUUUA | 0.000904 ± 0.011 | 0.000771 ± 0.0056 | 0.000218 ± 0.018 | 
24 | UCCUGGAUGUCGAUGCAUAGUUUUUAGAUA | 0.000382 ± 0.025 | 0.000578 ± 0.0088 | 0.00127 ± 0.006 | 

Record cards, as listed above:
UCCUGCUACAGCUUGCUUAGUAUAUAGUUA is entered as pre-steady-state target cleavage rate [1, 3] = 0.404 ± 0.038; pre-steady-state target cleavage rate [1, 4] = 0.0128 ± 0.0044; pre-steady-state target cleavage rate [2, 5] = 0.0125 ± 0.0047
UCCUGGAUGUCGAACGUUUGUUUUUAGUUA is entered as pre-steady-state target cleavage rate [1, 3] = 0.000188 ± 0.044; pre-steady-state target cleavage rate [1, 4] = 0.000334 ± 0.015; pre-steady-state target cleavage rate [2, 6] = 0.000122 ± 0.058
